1 compound from patent publication US5352680A, “Delta opioid receptor antagonists to block opioid agonist tolerance and dependence” (priority 1992, dated 1994) can be followed below.

For this assay, the system named is development of physical dependence in mice treated acutely with morphine. Type of assay: in vivo, mice (male Swiss-Webster). Conditions: Morphine sulfate 100 mg/kg, s.c. 4 hr before the naloxone; * significantly different from MS + NTI (single injection).

Take `CN1CC[C@]23c4c5ccc(O)c4O[C@H]2[C@@H](O)C=C[C@H]3[C@H]1C5.O=S(=O)(O)O` [Morphine sulfate, reference compound]: the “ED50 of Naloxone” value is 2.0 ± 0.3 μmol/kg ± S.E.
